Results are given in words; binding and its absence hold for the method and conditions named. In cells and extracts the contact can be indirect. Some results given as binding are weak or reduced against the parent protein; the word gives no strength.
Key:
[1] = biological target: T1, sodium iodide symporter (NIS) (UniProt Q92911); assay: co-IP; cells, tags and conditions not stated
T1 sequence: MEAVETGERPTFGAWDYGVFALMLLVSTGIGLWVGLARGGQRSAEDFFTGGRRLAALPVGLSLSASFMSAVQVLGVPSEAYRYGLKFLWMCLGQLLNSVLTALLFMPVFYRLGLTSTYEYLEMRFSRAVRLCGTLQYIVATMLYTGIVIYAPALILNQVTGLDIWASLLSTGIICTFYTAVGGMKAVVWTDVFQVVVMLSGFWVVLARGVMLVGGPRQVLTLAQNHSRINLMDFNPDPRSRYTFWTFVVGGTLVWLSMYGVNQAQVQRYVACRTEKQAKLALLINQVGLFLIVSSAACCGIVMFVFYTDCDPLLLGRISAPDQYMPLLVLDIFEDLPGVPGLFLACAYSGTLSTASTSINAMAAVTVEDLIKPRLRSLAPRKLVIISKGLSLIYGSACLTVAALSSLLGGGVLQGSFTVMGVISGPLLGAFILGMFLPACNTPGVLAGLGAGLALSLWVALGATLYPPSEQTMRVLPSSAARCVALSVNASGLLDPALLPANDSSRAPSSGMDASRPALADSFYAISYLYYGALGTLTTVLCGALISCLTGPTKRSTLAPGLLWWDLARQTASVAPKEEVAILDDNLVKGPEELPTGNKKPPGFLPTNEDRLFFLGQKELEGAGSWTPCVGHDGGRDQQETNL

[2] = biological target: T1, sodium iodide symporter (NIS); assay: proximity ligation; cells and conditions not stated

**Q.** Which binding [1] does the source give for VCP (from UniProt P55072 1-806) here?
**A.** The binding was “binds”.

**Q.** What about the binding [2] of the same substance?
**A.** Its binding is “binds”.
